This series is described as follows: Aqueous solubility tests by solution 1H NMR.

A word on the Aqueous solubility: it is the concentration that dissolves in the medium under given conditions. Turning to `COc1ccc2cc(C(C)C(=O)O)ccc2c1.NCCc1ccc(O)cc1` (centres unmarked) [NAP-TYA], the “Increase in aqueous solubility of adduct versus pure API” value (aqueous solution, adduct versus pure API) is 35 fold. Where the note is “deionized H2O, stirred 3 days, filtered, 1H NMR at 298 K with TSP internal standard, concentration of the drug in solution, average of three measurements ± standard deviation”, this molecule displayed an Aqueous solubility of 735 ± 75 µg/mL.

For the origin of these results see article PMC12063043, “Exploring Tyramine's Role in the Formation of Supramolecular Adducts with Nonsteroidal Anti‐Inflammatory Drugs” (Chemistry (Weinheim an Der Bergstrasse, Germany), 2025).
